From patent publication US20080305989A1
No constants are given. Whether binding was seen depends on the method and setting.

Biological target: 125I-insulin
Assay: condition: up to 1 mg per well of TD-1; ~30,000 cpm 125I-insulin per well; 125I-insulin added to ELISA wells precoated with TD-1, bound radioactivity counted after washing

B1: TD-1 peptide (…) (peptide)
peptide: ACSSSPSKHCG
  binding: no binding
